Results: paper PMC7819943, “Rice protein-binding microarrays: a tool to detect cis-acting elements near promoter regions in rice”
Some of the results follow.

Sequences of proteins named here, by UniProt entry; tags and fusion partners are left off.
UniProt Q0JBA9, entry or part of it: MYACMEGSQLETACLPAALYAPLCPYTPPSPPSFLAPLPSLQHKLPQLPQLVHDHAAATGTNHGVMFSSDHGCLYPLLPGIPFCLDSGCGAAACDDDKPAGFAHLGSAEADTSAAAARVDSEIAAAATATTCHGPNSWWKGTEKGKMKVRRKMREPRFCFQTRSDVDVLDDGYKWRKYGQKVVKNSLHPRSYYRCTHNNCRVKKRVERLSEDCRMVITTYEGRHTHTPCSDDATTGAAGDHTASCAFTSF

Target: OsWRKY34 (Oryza sativa, UniProt Q0JBA9 1-250)
Assay: protein-binding microarray (RPBM); PBS, 2% BSA, 51.3 ng/ul salmon testes DNA, 50 uM zinc acetate, 200 nM TF, 25 C, 1 h; high values mean tight binding
Details: protein: recombinant; tags: N-terminal polyhistidine and DsRed monomer fusion (pET32a); label: CyDye5-dUTP incorporated in the synthesized complementary strand; 3' TTTTT single-stranded linker to array surface; dsDNA, one strand shown
How it was run: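 For the binding signal, per-feature fluorescence intensity was read in arbitrary units on an Axon 4000B scanner. Before scanning, a 2% BSA-blocked custom Agilent array made double-stranded with Cy5-dUTP was washed after 1 h at 25 °C with 200 nM protein and 50 µM zinc acetate. The proteins were Ni–NTA-purified transcription factors with N-terminal polyhistidine and DsRed fusions, expressed in E. coli BL21-CodonPlus.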

Sequence	binding signal
GCTTTTATTGTTGCAGATACTACATGAACTACTTTAATTTCGGAGTCACCTAGTGCAG	9550 fluorescence intensity (a.u.)
GAGGTCTTATGTTTAATCCCTAACCCGTTCAATATCTTCTCGGAGTCACCTAGTGCAG	8840 fluorescence intensity (a.u.)
GGTGGCCCTCGTGGTGTGGTGGTGGAAGAAGAGGGCGATGCGGAGTCACCTAGTGCAG	8320 fluorescence intensity (a.u.)
CCCTCCATCTACTTTTAATAGTCATATTTCATCTTGACACCGGAGTCACCTAGTGCAG	8410 fluorescence intensity (a.u.)
CTCCTCATCCGCCTCTCCACCCACCTCAACCCTGACCCGACGGAGTCACCTAGTGCAG	10200 fluorescence intensity (a.u.)
GCCCACGTACGCCGGCACCCATCCGTCTGCTCCACGCGTCCGGAGTCACCTAGTGCAG	10200 fluorescence intensity (a.u.)
GTGGTGGTGGTGGTGGTGGTGGTGGTGGTGCACGGCCATGCGGAGTCACCTAGTGCAG	16400 fluorescence intensity (a.u.)
GTCGTCAACTCCGTCTCGCAATTCCCAAACCGCACCTTCCCGGAGTCACCTAGTGCAG	9230 fluorescence intensity (a.u.)
GTTCTGACTGTTGTGTTGTGGGTGTTTGGTTTATGAGCAGCGGAGTCACCTAGTGCAG	8430 fluorescence intensity (a.u.)
TCATTGCCCGTCCGATCTCTCACCTGCGATTTAATGTTCACGGAGTCACCTAGTGCAG	11500 fluorescence intensity (a.u.)
CTTTGCCTTCGCGGCGCCGTCTCCGTCGCCACTCACACCCCGGAGTCACCTAGTGCAG	8550 fluorescence intensity (a.u.)
GCCTGCTGTTCCTTTTAGTTTCTCCAAGCTCCTGCCAACACGGAGTCACCTAGTGCAG	8320 fluorescence intensity (a.u.)
TGAGGTTTGTCTTGGTATTTTGTTGTTTTGGTCTACAGTTCGGAGTCACCTAGTGCAG	10700 fluorescence intensity (a.u.)
GTCGCATGTTATACGCTTTAATCATCTCCGCGTACATAACCGGAGTCACCTAGTGCAG	9620 fluorescence intensity (a.u.)
CTCATCCTCCTCAATCACCGTTCGACTCGCTGCTTCCCCTCGGAGTCACCTAGTGCAG	8840 fluorescence intensity (a.u.)
GTAGTCTCACCTACACCAGCCCGGGAACTATTCTCATTGTCGGAGTCACCTAGTGCAG	8080 fluorescence intensity (a.u.)
TAGGTTTTTTTTTACTTTTTAACTTGGCTGATTTTATTGACGGAGTCACCTAGTGCAG	8760 fluorescence intensity (a.u.)
GGCGTGTTGGTGTGCGTGGATTGGGTGGGTGAGGAGGATGCGGAGTCACCTAGTGCAG	13000 fluorescence intensity (a.u.)
GGCCCTACTTCCCTTCACGCCTCCACTGACCTCGCCGGCCCGGAGTCACCTAGTGCAG	9270 fluorescence intensity (a.u.)
AGCTTACACCCTCATCTTTTCGCTTATACTTATCAGCCAACGGAGTCACCTAGTGCAG	13100 fluorescence intensity (a.u.)
ACACATACATTCCTATTAGAATCCTGCATTTTTTCTATTCCGGAGTCACCTAGTGCAG	8440 fluorescence intensity (a.u.)

Sequence	binding signal
AAGAGGTTGGTTTGGAAATGCATATTGAGCCCTGTACTGTCGGAGTCACCTAGTGCAG	10000 fluorescence intensity (a.u.)
TCCATTGCATGCAGCTCATCATGTCACGTCCTTACATGCTCGGAGTCACCTAGTGCAG	10800 fluorescence intensity (a.u.)
GTTATTTTTTCGTTTATATTTAATATTCATACATGTATCCCGGAGTCACCTAGTGCAG	9980 fluorescence intensity (a.u.)
GCCGGTACGGTGAAGATTTGCTCCACCCACTTTTTCTTCACGGAGTCACCTAGTGCAG	8490 fluorescence intensity (a.u.)
AGAGGGAGGAGGGGACTGGGGCGGCGGCTAGGGTTGGGGACGGAGTCACCTAGTGCAG	15600 fluorescence intensity (a.u.)
CGAGATCTTTGGTTTGGTTGGTTTCTTTAAGACCCGTGCGCGGAGTCACCTAGTGCAG	8780 fluorescence intensity (a.u.)
TCAAAACCCTCGCCTCCGCTCTCTCGCGCACACTCGTGCTCGGAGTCACCTAGTGCAG	8940 fluorescence intensity (a.u.)
CTGTAGATAGGGGCAGTTATAAATACGCGGGGACAAAAAACGGAGTCACCTAGTGCAG	13800 fluorescence intensity (a.u.)
GGGCTTGTTTACTTTGTTATTATTTTCGGTTCTACCATTTCGGAGTCACCTAGTGCAG	11600 fluorescence intensity (a.u.)
GGTTGATTATTCCGTCGGCGTCAGCCATCAGGTGCATCACCGGAGTCACCTAGTGCAG	8040 fluorescence intensity (a.u.)
TTTGCGATCAATAATTCGTTGGTTCGTTCGTTCGCCGCTACGGAGTCACCTAGTGCAG	8040 fluorescence intensity (a.u.)
GGGATATGGAAACCACTAATACTAGTCATTTCGTCATGCTCGGAGTCACCTAGTGCAG	8100 fluorescence intensity (a.u.)
AATAAAAACATAGGGTCTTTTTTGCAAAATTTGCTGATGTCGGAGTCACCTAGTGCAG	8590 fluorescence intensity (a.u.)
GAATCACCCACACACGACTTGCGTTTTTGTCTCTCTGCTCCGGAGTCACCTAGTGCAG	9820 fluorescence intensity (a.u.)
AGAACACCCATTTCACTATTTCAGGCATCCATTTCGACACCGGAGTCACCTAGTGCAG	11300 fluorescence intensity (a.u.)
GCACACTGTTTAAGCATCATTATTTGCTTGCATCTTGGGGCGGAGTCACCTAGTGCAG	13200 fluorescence intensity (a.u.)
ATCCTATCTACACAAATCTTCTCATTTACACACCAATTAACGGAGTCACCTAGTGCAG	8330 fluorescence intensity (a.u.)
GATTAATCACTCCTACTTTACGTTGTAAAAGTTGAAATTTCGGAGTCACCTAGTGCAG	9100 fluorescence intensity (a.u.)
AAACTTTGATCACACTTTGGATGCATGTTCCTGCACAACACGGAGTCACCTAGTGCAG	11100 fluorescence intensity (a.u.)
CCTATATATTTTGGCGCTTCTGCGCGCGCCTCCTTATCTCCGGAGTCACCTAGTGCAG	8330 fluorescence intensity (a.u.)
GTTCCGAACGGATATGACTCATTATTCATTATTATCAGGACGGAGTCACCTAGTGCAG	8250 fluorescence intensity (a.u.)

Sequence	binding signal
TCTCTCCATTGCTAGCTCCTCATCACTCCATACAAACAACCGGAGTCACCTAGTGCAG	14000 fluorescence intensity (a.u.)
TGTCCAACAACTGGCACACGCCTCGTCTTCTTCCGTGACGCGGAGTCACCTAGTGCAG	9820 fluorescence intensity (a.u.)
ATGAATTGATAGTTGCATGTCTTCCTAAAGTCTTGTTTTTCGGAGTCACCTAGTGCAG	8540 fluorescence intensity (a.u.)
GGGCGTTTGGGTTGGGCCACAAGAAAATTCCTCGCTCGCCCGGAGTCACCTAGTGCAG	8070 fluorescence intensity (a.u.)
TCTCGTTTCGTTCGTGTATCATGTTTTTTTTTGGGTCGCTCGGAGTCACCTAGTGCAG	8730 fluorescence intensity (a.u.)
CGCCCAACCCCAACACATGTACATTTCCCTTGGCTTGCTTCGGAGTCACCTAGTGCAG	10400 fluorescence intensity (a.u.)
TTCGCCCACTCACACACACTGACACTGCCACCTCACTCTCCGGAGTCACCTAGTGCAG	9530 fluorescence intensity (a.u.)
GCTCGCTTTCTCAGGTCTTTCTCTTCCCCGTATCCCCACTCGGAGTCACCTAGTGCAG	10500 fluorescence intensity (a.u.)
ATTCTCTCTTCTGTGTTTCCTTTTTGAGATACTTCATTTTCGGAGTCACCTAGTGCAG	9340 fluorescence intensity (a.u.)
ATTGCTTATACTTTTTTTAGTACCAACCGTTGGAAACAATCGGAGTCACCTAGTGCAG	9920 fluorescence intensity (a.u.)
GGAGAGAGAGGGGTTTGTGTGGCTGCGAGTGGGCCCCATGCGGAGTCACCTAGTGCAG	9060 fluorescence intensity (a.u.)
TACTTACTCCCTCCGTATTTTAATGTATGACGCCGTTGACCGGAGTCACCTAGTGCAG	14200 fluorescence intensity (a.u.)
CCCACCACCTATTGTAACTGTATCCCACTGTTCACTATTTCGGAGTCACCTAGTGCAG	11400 fluorescence intensity (a.u.)
GCTGGGAGGGAGGAGCGGGAGGCGGCGCGGCGCGTGGAGGCGGAGTCACCTAGTGCAG	8580 fluorescence intensity (a.u.)
GTGAGCTACGATGGATGGTTTGGTTGATGGTTAAGTTCGACGGAGTCACCTAGTGCAG	9560 fluorescence intensity (a.u.)
AGCAACATTATCCCACGCTTCATTTTGCCGCCATTGACCTCGGAGTCACCTAGTGCAG	12300 fluorescence intensity (a.u.)
TGAATTGTGATCTCTCCACCACCATCACCACCACCACGACCGGAGTCACCTAGTGCAG	9630 fluorescence intensity (a.u.)
GCTCGTCCTCCGCTGCACCACTTGCATCCGCGCGCGCTTCCGGAGTCACCTAGTGCAG	11000 fluorescence intensity (a.u.)
TGTGATTGGTTGTTCTTGGTTTACTTCACCCTGTTGCTTCCGGAGTCACCTAGTGCAG	8260 fluorescence intensity (a.u.)
CGTCTTACGTCTTTTCCATCGCGTCCTTTGCGTCCTTTTGCGGAGTCACCTAGTGCAG	8970 fluorescence intensity (a.u.)
AGATGTCCTAATGGAGCAGGTCATTTGGTTGGTATTCTGCCGGAGTCACCTAGTGCAG	8300 fluorescence intensity (a.u.)

Single values from above.
TACTTACTCCCTCCGTATTTTAATGTATGACGCCGTTGACCGGAGTCACCTAGTGCAG – binding signal: 14200 fluorescence intensity (a.u.)
TCAAAACCCTCGCCTCCGCTCTCTCGCGCACACTCGTGCTCGGAGTCACCTAGTGCAG – binding signal: 8940 fluorescence intensity (a.u.)
TCTCGTTTCGTTCGTGTATCATGTTTTTTTTTGGGTCGCTCGGAGTCACCTAGTGCAG – binding signal: 8730 fluorescence intensity (a.u.)
AGAACACCCATTTCACTATTTCAGGCATCCATTTCGACACCGGAGTCACCTAGTGCAG – binding signal: 11300 fluorescence intensity (a.u.)
AAGAGGTTGGTTTGGAAATGCATATTGAGCCCTGTACTGTCGGAGTCACCTAGTGCAG – binding signal: 10000 fluorescence intensity (a.u.)

Following part:

Sequence	binding signal
CGCCGGCTTCGCGCTCCCAACCTCGCCGTCGTTCGTCATGCGGAGTCACCTAGTGCAG	8120 fluorescence intensity (a.u.)
TTCATCAGTAGTCTTCCAATTACTTCCCTTCATCTAGTTACGGAGTCACCTAGTGCAG	8190 fluorescence intensity (a.u.)
CTCCTGCGTCGCATGCGCTTATCCCTACCAATGAGTTAACCGGAGTCACCTAGTGCAG	12100 fluorescence intensity (a.u.)
GCATGCGGCCGCGACCGACCGACCATCTCCTTGGTCCTTCCGGAGTCACCTAGTGCAG	9790 fluorescence intensity (a.u.)
GATCGCCCTGTGCCGTGCAGTGCAGTTCGTCGACCTCTTGCGGAGTCACCTAGTGCAG	8580 fluorescence intensity (a.u.)
CTTTTTTTACAAATGGATCCTTGGTGCTAATGTTCATATTCGGAGTCACCTAGTGCAG	9020 fluorescence intensity (a.u.)
CGGCGCGTACGCAGTCCACTACCACCACTTCCGCCGGCGCCGGAGTCACCTAGTGCAG	8450 fluorescence intensity (a.u.)
TTTGTCGTTGCTTCCCTTCTTGGAGACCTTGCCTTGAAGACGGAGTCACCTAGTGCAG	8090 fluorescence intensity (a.u.)
CCTGCTCGATCCGATCCAATCCGCTCCTCTCCAGTCCAGACGGAGTCACCTAGTGCAG	8820 fluorescence intensity (a.u.)
TCTCTCTCTCTCTCTCTCTCTTCTCCTCGCGTTATCCTTCCGGAGTCACCTAGTGCAG	9110 fluorescence intensity (a.u.)
ACTTCCAACTTTTCTGTCACATCGAATTTTCCTACACACACGGAGTCACCTAGTGCAG	8450 fluorescence intensity (a.u.)
TTTCTATTAATATTATTTTGGAGGGCCAGGGGCGGTTCTCCGGAGTCACCTAGTGCAG	11000 fluorescence intensity (a.u.)
TACAAGACCATAGTTCGACTCCCCACCACCGCGCCTGAATCGGAGTCACCTAGTGCAG	8460 fluorescence intensity (a.u.)
TCGCCGTTCGCTGGTATATGCCGTTGTCTTGGAATCATCTCGGAGTCACCTAGTGCAG	11100 fluorescence intensity (a.u.)
ACCTGTTGAGCAACTATTTTTACCGTACTTTGGAGCGTTTCGGAGTCACCTAGTGCAG	8540 fluorescence intensity (a.u.)
TTTTTGGATGATTTTCTTAAGTTTGGGGTTAGACTTGTTTCGGAGTCACCTAGTGCAG	8560 fluorescence intensity (a.u.)
AAACACCGACCATTTCTTCACTCTCTAAGCTAGCTCGATGCGGAGTCACCTAGTGCAG	9170 fluorescence intensity (a.u.)
TTGGGTATCGTATTGGGTGTTCGGGCACTAATAAAAAAACCGGAGTCACCTAGTGCAG	10600 fluorescence intensity (a.u.)
CGCATCGCATCCCATCCCATCCCATCGCACCGCGCAAAACCGGAGTCACCTAGTGCAG	8240 fluorescence intensity (a.u.)
TTTCTGTTCTGCATTTCTGTCGCTTCCTCTGCATGCAACACGGAGTCACCTAGTGCAG	11800 fluorescence intensity (a.u.)
TATATGGGCCTAATGCATTGTTACGCTTTCAGCCCATAACCGGAGTCACCTAGTGCAG	9240 fluorescence intensity (a.u.)
